Here are results for 3 substances from article PMC7370230.

Amino acid sequences for entries named in this document (tags omitted).
UniProt Q61768: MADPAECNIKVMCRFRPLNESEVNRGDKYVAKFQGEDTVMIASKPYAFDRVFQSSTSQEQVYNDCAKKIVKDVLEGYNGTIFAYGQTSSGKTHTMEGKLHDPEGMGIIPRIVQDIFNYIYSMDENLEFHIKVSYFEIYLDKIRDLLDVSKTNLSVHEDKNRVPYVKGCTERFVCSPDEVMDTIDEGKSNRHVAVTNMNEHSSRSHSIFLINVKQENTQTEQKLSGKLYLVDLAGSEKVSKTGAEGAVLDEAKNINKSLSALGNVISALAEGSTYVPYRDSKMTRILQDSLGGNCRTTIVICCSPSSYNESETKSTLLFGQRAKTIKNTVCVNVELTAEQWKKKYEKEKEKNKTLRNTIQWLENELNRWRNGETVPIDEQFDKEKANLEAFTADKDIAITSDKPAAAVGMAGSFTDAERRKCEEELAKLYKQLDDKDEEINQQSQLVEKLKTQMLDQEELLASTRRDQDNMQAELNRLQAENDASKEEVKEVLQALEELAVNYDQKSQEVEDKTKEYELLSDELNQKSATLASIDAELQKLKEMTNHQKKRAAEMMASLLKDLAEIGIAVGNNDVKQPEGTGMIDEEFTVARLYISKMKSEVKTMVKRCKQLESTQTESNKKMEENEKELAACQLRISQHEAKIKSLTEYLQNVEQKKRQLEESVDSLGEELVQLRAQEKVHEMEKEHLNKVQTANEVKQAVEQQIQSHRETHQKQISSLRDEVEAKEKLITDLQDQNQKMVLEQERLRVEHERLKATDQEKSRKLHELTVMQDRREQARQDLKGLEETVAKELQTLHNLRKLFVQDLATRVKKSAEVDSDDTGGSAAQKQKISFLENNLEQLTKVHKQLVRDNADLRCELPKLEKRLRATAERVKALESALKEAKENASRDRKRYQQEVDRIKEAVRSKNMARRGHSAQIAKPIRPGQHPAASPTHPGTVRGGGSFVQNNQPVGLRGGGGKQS
UniProt Q8K1M6: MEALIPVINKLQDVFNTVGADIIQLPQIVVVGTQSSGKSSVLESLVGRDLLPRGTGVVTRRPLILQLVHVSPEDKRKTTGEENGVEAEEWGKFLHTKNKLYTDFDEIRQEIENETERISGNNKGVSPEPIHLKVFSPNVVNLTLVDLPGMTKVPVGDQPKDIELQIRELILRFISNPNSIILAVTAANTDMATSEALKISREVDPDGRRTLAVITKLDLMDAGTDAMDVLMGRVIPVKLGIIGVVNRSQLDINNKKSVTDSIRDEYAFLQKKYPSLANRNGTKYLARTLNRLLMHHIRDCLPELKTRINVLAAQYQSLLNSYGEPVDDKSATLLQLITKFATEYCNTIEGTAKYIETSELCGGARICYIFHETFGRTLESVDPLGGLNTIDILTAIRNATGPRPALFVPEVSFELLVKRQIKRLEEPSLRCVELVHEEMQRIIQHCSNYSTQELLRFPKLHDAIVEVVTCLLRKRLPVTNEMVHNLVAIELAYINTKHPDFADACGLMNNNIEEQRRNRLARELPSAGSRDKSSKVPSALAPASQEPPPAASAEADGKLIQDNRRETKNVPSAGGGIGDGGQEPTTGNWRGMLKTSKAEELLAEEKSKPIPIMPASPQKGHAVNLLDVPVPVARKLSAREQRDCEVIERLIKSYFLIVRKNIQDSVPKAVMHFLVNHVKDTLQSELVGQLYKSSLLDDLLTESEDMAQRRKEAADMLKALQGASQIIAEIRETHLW
UniProt O88447: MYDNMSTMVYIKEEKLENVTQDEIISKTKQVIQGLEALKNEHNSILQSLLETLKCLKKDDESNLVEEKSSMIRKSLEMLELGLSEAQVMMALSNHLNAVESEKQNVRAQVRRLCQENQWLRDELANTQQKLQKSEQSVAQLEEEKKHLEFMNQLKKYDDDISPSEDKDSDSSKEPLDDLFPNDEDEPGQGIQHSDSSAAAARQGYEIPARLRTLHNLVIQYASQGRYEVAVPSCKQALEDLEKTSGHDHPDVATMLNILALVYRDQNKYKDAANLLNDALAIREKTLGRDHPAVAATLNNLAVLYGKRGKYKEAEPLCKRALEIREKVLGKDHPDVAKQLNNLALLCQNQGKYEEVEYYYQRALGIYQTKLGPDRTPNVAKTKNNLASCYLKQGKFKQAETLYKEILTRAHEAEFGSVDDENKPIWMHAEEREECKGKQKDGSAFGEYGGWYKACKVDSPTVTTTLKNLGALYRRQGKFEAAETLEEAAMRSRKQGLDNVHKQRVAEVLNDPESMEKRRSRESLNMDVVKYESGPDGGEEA

Test [1] addresses kinesin heavy chain KIF5B (mouse (endogenous in skeletal muscle)) (UniProt Q61768). The test can be described thus: co-IP; muscle (TA, gastrocnemius) lysates of WT and Drp/MC mice at P25, also of Drp/MC mice treated or not with Mdivi-1; lysis buffer 20 mM Tris-HCl pH 8, 137 mM NaCl, 10% glycerol, 1% NP-40, 2 mM EDTA; overnight with antibody to Drp1 or KIF5B and protein A or G Sepharose; control IgG as negative control; immunoblot. In general terms: Immunoblotting shows a protein as a band on a membrane.

In test [2] the target is dynamin-related protein 1 (Drp1) (not stated (transgene in Drp/MC mice; endogenous mouse Drp1 also present)) (UniProt Q8K1M6). Described as above.
The target is the same in test [3]. The test can be described thus: proximity ligation; Duolink PLA on fixed, permeabilised TA muscle sections and single myofibres of WT/PhAM and Drp/MC/PhAM mice, also of Drp/MC mice treated or not with Mdivi-1; PLA puncta counted.

These are yes or no findings as the source states them, for the method shown. In cells and extracts the contact can be indirect. Some results given as binding are weak or reduced against the parent protein; the word gives no strength.

As for “dynamin-related protein 1 (Drp1) (from UniProt Q8K1M6 1-736)”, the binding result in test [1] was “no binding”.

Consider “kinesin heavy chain KIF5B (from UniProt Q61768 1-963)”, for which, in test [2], the binding result was “no binding”.

As to “kinesin light chain 1 (KLC1) (from UniProt O88447 1-541)”, the binding result in test [3] and in test [2] was “binds” throughout.
